# Experimental data: PubChem BioAssay AID493246 (Drosophila RNAi Screening Center, 2011)
# Aim: 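Genome-wide search for dsRNAs that reduce cell number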 (primary screen)
# Cells: Drosophila Kc and S2R+ cells
# Knock-down reagent: long dsRNA against Drosophila genes
# Measured: 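Raw, unnormalised count of remaining cells in each well; per-plate z-scores of cell number underlie the calls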
# Scale: Kc cell number and S2R+ cell number: higher = more cells remaining
# Active means: 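Counted as a hit if cell number falls by a z-score of at least 3 within its plate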
# The deposit covers about 21,000 reagents; below is a random part of those with a known target gene and a result. Of all reagents, 429 (2%) got an active call. 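Values are raw and not normalised between plates; calls rest on per-plate z-scores that were not deposited.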 Unmarked entries are inactive. A plus sign joins genes that one reagent is predicted to hit. Not given: the amount of reagent, the time to read-out.
Gene,dsRNA,"Kc cell number, rep 1","Kc cell number, rep 2","S2R+ cell number, rep 1","S2R+ cell number, rep 2"
eIF6 (GeneID 37776),DRSC04674,1.33e6,1.39e6,1.05e6,1.07e6
hb (GeneID 41032),DRSC16963,1.49e6,1.70e6,1.34e6,1.37e6
Dhc98D (GeneID 43379),DRSC16645,1.49e6,1.55e6,1.02e6,1.13e6
nbs (GeneID 44259),DRSC11373,1.27e6,1.23e6,1.29e6,1.36e6
CG5089 (GeneID 36859),DRSC06914,1.35e6,1.45e6,1.19e6,1.19e6
ph-d (GeneID 44889),DRSC18819,1.38e6,1.52e6,7.32e5,8.20e5
CG7914 (GeneID 32907),DRSC20068,1.46e6,1.48e6,1.07e6,1.16e6
CG5021 (GeneID 39025),DRSC10469,1.37e6,1.40e6,1.15e6,1.21e6
Prip (GeneID 36237),DRSC07044,1.37e6,1.47e6,1.09e6,1.10e6
dsb (GeneID 38252),DRSC08407,1.27e6,1.24e6,7.37e5,9.13e5
dsb (GeneID 38252),DRSC08542,1.45e6,1.26e6,9.55e5,1.18e6
tRNA:Leu-CAA-2-3 (GeneID 3772601),DRSC13633,1.03e6,1.34e6,1.08e6,1.05e6
Rlip (GeneID 42484),DRSC16828,1.25e6,1.41e6,1.06e6,1.08e6
CG12689 (GeneID 31676),DRSC17879,1.53e6,1.52e6,1.12e6,1.20e6
CG43775 (GeneID 37863),DRSC04206,1.46e6,1.54e6,1.25e6,1.33e6
Sk2 (GeneID 326219),DRSC08556,1.06e6,1.28e6,1.14e6,6.59e5
CG42360 (GeneID 37937),DRSC04224,1.50e6,1.55e6,1.30e6,1.39e6
lectin-46Ca (GeneID 53523),DRSC06612,1.50e6,1.46e6,1.10e6,1.09e6
CG5478 (GeneID 41936),DRSC15814,1.30e6,1.39e6,1.21e6,1.38e6
CG13026 (GeneID 39868),DRSC09906,1.52e6,1.75e6,1.43e6,1.54e6
FER (GeneID 41118),DRSC12735,1.78e6,1.68e6,1.19e6,1.45e6
FER (GeneID 41118),DRSC16673,1.65e6,1.65e6,1.18e6,1.29e6
CG6180 (GeneID 34683),DRSC02937,1.37e6,1.41e6,1.05e6,1.11e6
CG11601 (GeneID 33197),DRSC00318,1.60e6,1.64e6,1.14e6,1.29e6
Act88F (GeneID 41885),DRSC14105,1.29e6,1.30e6,9.33e5,1.06e6
RpL8 (GeneID 44251),DRSC08532,8.67e5 (active),9.12e5,5.71e5,7.29e5
RpL8 (GeneID 44251),DRSC08695,8.43e5 (active),8.86e5,5.81e5,7.23e5
CG2663 (GeneID 40649),DRSC12314,1.59e6,1.79e6,1.31e6,1.36e6
dmrt11E (GeneID 32291),DRSC19715,1.62e6,1.52e6,1.07e6,1.16e6
yata (GeneID 43508),DRSC15408,1.56e6,1.57e6,1.03e6,1.11e6
cN-IIIB (GeneID 37875),DRSC04359,1.31e6,1.43e6,1.17e6,1.21e6
l(3)72Dr (GeneID 39778),DRSC10478,1.33e6,1.42e6,1.29e6,1.43e6
dome (GeneID 32976),DRSC19583,1.52e6,1.55e6,1.04e6,1.20e6
CG12278 (GeneID 42486),DRSC14494,1.22e6,1.34e6,9.74e5,1.08e6
CG5863 (GeneID 42096),DRSC15898,1.34e6,1.48e6,1.02e6,1.18e6
CG9776 (GeneID 40546),DRSC12127,1.64e6,1.70e6,1.46e6,1.48e6
CG6683 (GeneID 38970),DRSC10694,1.32e6,1.40e6,1.23e6,1.15e6
Uros1 (GeneID 31817),DRSC18191,5.76e5,,8.51e5,
CG6216 (GeneID 39257),DRSC10606,1.31e6,1.24e6,1.28e6,1.35e6
CG12241 (GeneID 41834),DRSC14481,1.45e6,1.49e6,1.27e6,1.29e6
CG42380 + CG42379 + PIG-M + 1 more,DRSC03884,6.68e5,,9.60e5,
CG42380 + CG42379 + PIG-M + 1 more,DRSC04580,1.26e6,1.35e6,9.30e5,9.00e5
Ance-5 (GeneID 37980),DRSC04055,1.24e6,1.31e6,1.05e6,1.09e6
r-cup (GeneID 33075),DRSC20475,1.43e6,1.49e6,1.10e6,1.17e6
ymp (GeneID 43088),DRSC13720,1.40e6,1.70e6,1.11e6,9.52e5
ymp (GeneID 43088),DRSC14482,1.55e6,1.44e6,1.00e6,1.09e6
CG11019 (retired record) (GeneID 50472),DRSC02117,1.55e6,1.67e6,1.18e6,3.01e5
CG13930 (GeneID 38210),DRSC08399,1.76e6,1.64e6,1.03e6,1.42e6
CG30195 (GeneID 37592),DRSC04155,1.56e6,1.62e6,1.20e6,1.35e6
CG12716 (GeneID 32248),DRSC19493,1.86e6,1.82e6,1.13e6,1.27e6
Nhe1 (GeneID 33167),DRSC00762,1.24e6,1.18e6,7.81e5,6.84e5
CG6550 (GeneID 36954),DRSC07001,9.04e5,1.04e6,1.10e6,1.01e6
amon (GeneID 43215),DRSC13784,1.27e6,1.54e6,1.13e6,1.15e6
amon (GeneID 43215),DRSC16900,1.32e6,1.32e6,9.88e5,1.12e6
Syt1 (GeneID 33473),DRSC00156,1.59e6,1.61e6,1.05e6,1.21e6
Syt1 (GeneID 33473),DRSC00157,1.54e6,1.59e6,1.04e6,1.20e6
Syt1 (GeneID 33473),DRSC00158,1.50e6,1.53e6,1.07e6,1.18e6
Syt1 (GeneID 33473),DRSC00840,1.31e6,1.41e6,1.02e6,1.04e6
CG10353 (GeneID 32148),DRSC19354,1.71e6,1.85e6,1.13e6,1.26e6
CG13048 (GeneID 39789),DRSC09929,1.55e6,1.49e6,1.35e6,1.42e6
DCP2 (GeneID 39722),DRSC10597,1.26e6,1.32e6,9.14e5,1.00e6
CG31882 (GeneID 319000),DRSC01084,1.50e6,1.54e6,9.87e5,1.09e6
Spt20 (GeneID 39522),DRSC10280,1.20e6 (active),1.25e6,7.70e5,7.97e5
Rbp1-like (GeneID 32293),DRSC19828,1.60e6,1.53e6,1.10e6,1.20e6
ScpX (GeneID 44183),DRSC03430,1.49e6,1.56e6,1.33e6,1.35e6
CG3589 (GeneID 37966),DRSC04392,1.41e6,1.53e6,1.11e6,1.25e6
Surf1 (GeneID 44498),DRSC11295,1.48e6,1.40e6,8.52e5,9.36e5
Surf1 (GeneID 44498),DRSC11394,1.41e6,1.46e6,1.19e6,1.19e6
Dpp10 (GeneID 33923),DRSC00942,1.64e6,1.79e6,1.13e6,1.28e6
Dpp10 (GeneID 33923),DRSC02139,1.41e6,1.33e6,1.11e6,1.22e6
CG33308 (GeneID 2768925),DRSC01419,1.47e6,1.47e6,8.84e5,1.06e6
fmt (GeneID 38714),DRSC09717,1.32e6,1.49e6,1.11e6,1.01e6
CG13800 (retired record) (GeneID 38305),DRSC08334,1.28e6,1.27e6,1.01e6,1.26e6
CG14881 (GeneID 41990),DRSC15005,1.33e6,1.46e6,1.21e6,1.38e6
CG14230 (GeneID 32984),DRSC19586,1.75e6,1.78e6,1.04e6,1.11e6
